Experimental findings from PMC11071257 are described below.

By UniProt entry, the sequences of proteins in these tests, tags left out. Where a name states a change or a piece, a line headed by the entry shows the natural chain unless it says otherwise.
UniProt P46531: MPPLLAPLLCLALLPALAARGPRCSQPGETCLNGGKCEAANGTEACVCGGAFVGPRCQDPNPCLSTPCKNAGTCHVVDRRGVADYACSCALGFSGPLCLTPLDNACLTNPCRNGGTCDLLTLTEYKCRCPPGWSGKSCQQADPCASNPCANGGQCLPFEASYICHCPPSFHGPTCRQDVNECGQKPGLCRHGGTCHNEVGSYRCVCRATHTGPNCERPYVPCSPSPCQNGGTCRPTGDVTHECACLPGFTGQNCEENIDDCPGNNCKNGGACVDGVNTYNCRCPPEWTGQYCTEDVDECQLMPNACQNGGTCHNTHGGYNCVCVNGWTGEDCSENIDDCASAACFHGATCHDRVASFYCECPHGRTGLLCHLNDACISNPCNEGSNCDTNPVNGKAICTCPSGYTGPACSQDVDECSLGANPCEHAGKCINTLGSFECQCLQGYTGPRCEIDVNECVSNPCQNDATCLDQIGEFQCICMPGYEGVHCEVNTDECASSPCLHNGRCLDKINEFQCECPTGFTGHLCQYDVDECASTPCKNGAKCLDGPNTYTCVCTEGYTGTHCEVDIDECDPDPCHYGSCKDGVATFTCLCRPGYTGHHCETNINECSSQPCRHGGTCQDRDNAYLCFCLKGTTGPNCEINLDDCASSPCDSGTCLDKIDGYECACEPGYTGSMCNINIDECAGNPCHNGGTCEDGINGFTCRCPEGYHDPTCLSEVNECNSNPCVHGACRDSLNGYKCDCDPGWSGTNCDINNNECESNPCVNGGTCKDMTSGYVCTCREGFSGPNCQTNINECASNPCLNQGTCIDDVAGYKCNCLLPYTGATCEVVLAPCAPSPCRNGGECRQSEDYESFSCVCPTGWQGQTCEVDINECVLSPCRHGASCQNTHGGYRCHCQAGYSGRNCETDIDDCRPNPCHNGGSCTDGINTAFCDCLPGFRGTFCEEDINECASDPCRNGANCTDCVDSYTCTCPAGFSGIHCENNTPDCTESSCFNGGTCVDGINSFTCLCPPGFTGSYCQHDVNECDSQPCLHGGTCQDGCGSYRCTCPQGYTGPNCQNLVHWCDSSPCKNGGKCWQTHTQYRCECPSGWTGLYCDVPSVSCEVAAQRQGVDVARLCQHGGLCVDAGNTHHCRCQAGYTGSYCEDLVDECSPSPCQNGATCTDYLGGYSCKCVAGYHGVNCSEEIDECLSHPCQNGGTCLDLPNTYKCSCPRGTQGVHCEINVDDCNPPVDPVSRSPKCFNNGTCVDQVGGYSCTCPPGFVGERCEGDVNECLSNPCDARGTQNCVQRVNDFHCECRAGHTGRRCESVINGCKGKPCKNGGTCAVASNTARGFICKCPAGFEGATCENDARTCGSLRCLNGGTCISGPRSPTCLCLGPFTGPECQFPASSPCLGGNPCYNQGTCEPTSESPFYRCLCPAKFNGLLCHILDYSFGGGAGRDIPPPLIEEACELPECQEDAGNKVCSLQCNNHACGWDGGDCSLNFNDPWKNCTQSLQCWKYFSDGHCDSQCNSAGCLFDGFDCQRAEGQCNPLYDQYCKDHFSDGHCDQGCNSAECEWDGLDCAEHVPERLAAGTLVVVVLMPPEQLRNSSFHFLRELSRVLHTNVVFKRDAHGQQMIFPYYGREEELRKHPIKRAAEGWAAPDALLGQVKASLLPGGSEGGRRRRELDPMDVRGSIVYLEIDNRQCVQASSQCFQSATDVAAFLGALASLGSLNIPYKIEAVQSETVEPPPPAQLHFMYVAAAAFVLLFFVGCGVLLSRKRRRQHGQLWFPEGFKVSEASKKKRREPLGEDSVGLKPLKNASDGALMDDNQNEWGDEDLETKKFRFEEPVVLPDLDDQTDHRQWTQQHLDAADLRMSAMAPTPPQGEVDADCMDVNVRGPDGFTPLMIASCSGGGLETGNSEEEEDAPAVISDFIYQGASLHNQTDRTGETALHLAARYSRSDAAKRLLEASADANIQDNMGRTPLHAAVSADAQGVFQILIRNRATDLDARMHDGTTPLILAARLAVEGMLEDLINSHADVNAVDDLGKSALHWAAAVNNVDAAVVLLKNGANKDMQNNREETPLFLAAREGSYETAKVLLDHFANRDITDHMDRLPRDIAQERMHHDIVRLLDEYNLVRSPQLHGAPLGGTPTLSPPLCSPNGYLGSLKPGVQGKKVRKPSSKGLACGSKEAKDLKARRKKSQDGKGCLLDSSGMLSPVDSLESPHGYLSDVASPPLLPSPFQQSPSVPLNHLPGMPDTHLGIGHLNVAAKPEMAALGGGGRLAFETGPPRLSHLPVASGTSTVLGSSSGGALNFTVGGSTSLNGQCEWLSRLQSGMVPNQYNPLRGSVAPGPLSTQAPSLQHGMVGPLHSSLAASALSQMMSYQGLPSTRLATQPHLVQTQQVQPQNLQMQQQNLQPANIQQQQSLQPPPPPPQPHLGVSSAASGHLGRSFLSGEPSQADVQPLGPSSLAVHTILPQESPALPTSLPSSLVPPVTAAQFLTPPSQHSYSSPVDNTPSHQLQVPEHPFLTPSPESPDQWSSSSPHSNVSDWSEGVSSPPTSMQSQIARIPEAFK
UniProt Q9UM47: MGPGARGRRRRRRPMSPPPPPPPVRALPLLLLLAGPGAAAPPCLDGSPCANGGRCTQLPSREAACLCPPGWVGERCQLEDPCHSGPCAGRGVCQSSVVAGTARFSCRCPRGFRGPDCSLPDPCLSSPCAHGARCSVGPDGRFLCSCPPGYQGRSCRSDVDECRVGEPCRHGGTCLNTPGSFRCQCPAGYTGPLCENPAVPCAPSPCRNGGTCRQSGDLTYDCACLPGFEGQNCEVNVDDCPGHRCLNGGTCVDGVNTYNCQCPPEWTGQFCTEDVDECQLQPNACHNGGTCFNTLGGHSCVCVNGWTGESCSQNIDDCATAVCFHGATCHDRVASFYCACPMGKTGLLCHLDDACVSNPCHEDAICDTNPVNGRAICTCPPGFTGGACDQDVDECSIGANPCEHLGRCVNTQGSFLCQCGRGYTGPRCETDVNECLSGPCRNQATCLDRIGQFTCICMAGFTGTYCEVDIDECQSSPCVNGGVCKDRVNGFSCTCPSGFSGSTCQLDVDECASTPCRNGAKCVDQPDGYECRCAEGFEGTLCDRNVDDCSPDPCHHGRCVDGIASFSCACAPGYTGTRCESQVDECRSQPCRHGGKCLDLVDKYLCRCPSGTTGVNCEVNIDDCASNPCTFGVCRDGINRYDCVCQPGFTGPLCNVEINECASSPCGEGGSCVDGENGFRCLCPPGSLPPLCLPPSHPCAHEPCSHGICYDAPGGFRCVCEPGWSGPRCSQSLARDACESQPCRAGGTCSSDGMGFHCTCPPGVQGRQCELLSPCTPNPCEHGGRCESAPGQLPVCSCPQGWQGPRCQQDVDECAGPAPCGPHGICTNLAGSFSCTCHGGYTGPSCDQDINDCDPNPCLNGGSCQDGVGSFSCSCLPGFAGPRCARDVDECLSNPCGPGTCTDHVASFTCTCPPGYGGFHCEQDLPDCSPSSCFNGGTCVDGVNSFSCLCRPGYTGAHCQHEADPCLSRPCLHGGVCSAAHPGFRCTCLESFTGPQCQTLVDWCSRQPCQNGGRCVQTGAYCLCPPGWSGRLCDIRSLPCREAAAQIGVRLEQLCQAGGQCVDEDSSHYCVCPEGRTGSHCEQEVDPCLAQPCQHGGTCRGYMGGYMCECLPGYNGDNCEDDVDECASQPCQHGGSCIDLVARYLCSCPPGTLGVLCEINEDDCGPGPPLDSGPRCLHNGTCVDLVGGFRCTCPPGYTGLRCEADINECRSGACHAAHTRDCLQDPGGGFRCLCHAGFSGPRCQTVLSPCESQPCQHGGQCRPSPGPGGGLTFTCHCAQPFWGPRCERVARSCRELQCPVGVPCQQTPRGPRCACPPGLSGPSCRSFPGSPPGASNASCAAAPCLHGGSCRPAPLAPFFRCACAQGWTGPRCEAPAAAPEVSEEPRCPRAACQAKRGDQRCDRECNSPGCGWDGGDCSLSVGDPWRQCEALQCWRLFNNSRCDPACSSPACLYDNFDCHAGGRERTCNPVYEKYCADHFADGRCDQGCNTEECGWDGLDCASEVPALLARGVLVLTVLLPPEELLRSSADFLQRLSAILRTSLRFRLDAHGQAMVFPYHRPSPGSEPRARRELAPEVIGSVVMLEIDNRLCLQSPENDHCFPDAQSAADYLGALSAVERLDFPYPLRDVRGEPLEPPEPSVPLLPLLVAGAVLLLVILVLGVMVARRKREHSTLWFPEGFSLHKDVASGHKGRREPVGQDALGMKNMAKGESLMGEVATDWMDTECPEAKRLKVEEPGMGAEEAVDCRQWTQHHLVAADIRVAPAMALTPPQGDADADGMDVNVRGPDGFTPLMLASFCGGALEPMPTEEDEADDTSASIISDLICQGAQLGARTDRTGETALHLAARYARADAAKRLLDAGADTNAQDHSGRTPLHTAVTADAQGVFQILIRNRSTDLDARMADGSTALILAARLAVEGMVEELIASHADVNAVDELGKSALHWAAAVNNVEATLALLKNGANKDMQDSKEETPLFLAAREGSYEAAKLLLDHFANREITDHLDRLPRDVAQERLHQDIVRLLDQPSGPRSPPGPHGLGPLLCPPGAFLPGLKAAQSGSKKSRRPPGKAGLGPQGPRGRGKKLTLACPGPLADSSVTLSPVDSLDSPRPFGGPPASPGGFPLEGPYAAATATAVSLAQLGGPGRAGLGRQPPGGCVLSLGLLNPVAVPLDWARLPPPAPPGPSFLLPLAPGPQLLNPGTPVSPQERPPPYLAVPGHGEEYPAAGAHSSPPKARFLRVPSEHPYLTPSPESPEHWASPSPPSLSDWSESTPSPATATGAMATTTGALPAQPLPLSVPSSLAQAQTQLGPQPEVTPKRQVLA

Assay [1] concerns the target Notch1 intracellular domain tagged with V5 (N1ICD-V5) (UniProt P46531). Kind of assay: co-IP; RIPA lysates of Mel JuSo NRN1-GFP cells transfected with pcDNA (control) or N1ICD-V5, harvested after 48 h, precleared with Protein G-Sepharose; precipitated with rabbit IgG (isotype control), V5 or Notch3 antibody, 4 °C overnight; Western blot probed with GFP, V5 and Notch3 antibodies.

For assay [2], the target named is Notch3 intracellular domain (N3ICD), endogenous (human (endogenous in Mel JuSo)) (UniProt Q9UM47). The description is as above.

No constants are given. Whether binding was seen depends on the method and setting. Binding seen in cells or lysates may run through a third protein. Binding can be weak; no strength is given. Sequences can lack the tags named with a protein.

B1: NRN1-GFP (Neuritin-1 with GFP tag) (protein, UniProt Q9NPD7 28-116)
chain: AGKCDAVFKGFSDCLLKLGDSMANYPQGLDDKTNIKTVCTYWEDFHSCTVTALTDCQEGAKDMWDKLRKESKNLNIQGSLFELCGSGNG
Consider B1, for which the binding entry in assay [1] and in assay [2] was “binds” throughout.
